Measurements published in article PMC10155811.

Sequences of proteins named here, by UniProt entry; tags and fusion partners are left off. A change or cut given only in a name is not applied to a line headed by its entry.
UniProt O43683: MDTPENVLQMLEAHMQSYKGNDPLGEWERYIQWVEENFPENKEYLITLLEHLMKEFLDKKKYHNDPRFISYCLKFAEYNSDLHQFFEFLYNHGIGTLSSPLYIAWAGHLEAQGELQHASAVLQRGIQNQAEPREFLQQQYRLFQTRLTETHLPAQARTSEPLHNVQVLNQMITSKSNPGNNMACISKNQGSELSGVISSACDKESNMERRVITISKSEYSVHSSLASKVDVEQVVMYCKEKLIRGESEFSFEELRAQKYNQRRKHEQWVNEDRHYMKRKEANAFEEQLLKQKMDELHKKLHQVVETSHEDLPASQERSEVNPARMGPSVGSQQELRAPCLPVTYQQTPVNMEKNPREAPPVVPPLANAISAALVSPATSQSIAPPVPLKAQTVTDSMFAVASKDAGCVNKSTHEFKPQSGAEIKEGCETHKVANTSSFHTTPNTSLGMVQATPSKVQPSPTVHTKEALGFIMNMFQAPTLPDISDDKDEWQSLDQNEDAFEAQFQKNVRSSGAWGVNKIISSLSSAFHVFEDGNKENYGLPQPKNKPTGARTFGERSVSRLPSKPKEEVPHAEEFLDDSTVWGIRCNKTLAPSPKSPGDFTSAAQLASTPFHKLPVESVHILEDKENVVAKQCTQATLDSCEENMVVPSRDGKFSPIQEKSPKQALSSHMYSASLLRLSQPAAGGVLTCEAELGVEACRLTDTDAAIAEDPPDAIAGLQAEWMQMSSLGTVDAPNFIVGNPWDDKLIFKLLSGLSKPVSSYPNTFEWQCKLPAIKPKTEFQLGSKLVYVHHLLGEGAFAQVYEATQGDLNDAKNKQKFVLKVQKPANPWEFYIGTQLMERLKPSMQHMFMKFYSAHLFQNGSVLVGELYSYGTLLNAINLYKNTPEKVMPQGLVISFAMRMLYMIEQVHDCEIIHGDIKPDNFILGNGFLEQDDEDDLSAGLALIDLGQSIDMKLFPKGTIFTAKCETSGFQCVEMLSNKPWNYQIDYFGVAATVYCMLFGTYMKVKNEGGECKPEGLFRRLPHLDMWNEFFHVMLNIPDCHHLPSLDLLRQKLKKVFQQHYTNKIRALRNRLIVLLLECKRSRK
UniProt Q15172: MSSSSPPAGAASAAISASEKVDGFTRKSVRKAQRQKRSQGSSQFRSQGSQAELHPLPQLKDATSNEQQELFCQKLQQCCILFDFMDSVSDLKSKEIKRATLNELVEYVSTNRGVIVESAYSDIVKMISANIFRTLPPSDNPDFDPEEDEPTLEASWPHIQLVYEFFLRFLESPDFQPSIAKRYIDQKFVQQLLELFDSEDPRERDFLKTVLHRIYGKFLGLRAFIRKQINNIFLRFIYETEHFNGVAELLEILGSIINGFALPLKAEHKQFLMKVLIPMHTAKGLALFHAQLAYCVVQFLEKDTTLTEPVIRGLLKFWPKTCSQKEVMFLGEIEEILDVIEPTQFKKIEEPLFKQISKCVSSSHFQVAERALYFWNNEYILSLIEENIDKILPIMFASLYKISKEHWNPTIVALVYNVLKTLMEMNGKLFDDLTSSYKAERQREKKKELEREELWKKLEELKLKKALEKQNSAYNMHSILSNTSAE

Biological target: YFP-Bub1ΔBubR1 (human) (UniProt O43683)
Assay: co-IP; YFP-tagged Bub1 or BubR1 proteins precipitated with GFP-Trap agarose beads from lysates of nocodazole-arrested mitotic HeLa cells, low-salt buffer (Kruse et al., 2013); quantitative western blot for B56α and YFP

binding: no binding
Substance: PP2A-B56 (detected as B56α) (from UniProt Q15172 1-486)

Results are given in words; binding and its absence hold for the method and conditions named. Binding seen in cells or lysates may run through a third protein.
